Reference: the supplement of paper PMC10849652
Some of the results follow.

By UniProt entry, the sequences of proteins in these tests, tags left out. Where a name states a change or a piece, a line headed by the entry shows the natural chain unless it says otherwise.
UniProt Q7L2J0: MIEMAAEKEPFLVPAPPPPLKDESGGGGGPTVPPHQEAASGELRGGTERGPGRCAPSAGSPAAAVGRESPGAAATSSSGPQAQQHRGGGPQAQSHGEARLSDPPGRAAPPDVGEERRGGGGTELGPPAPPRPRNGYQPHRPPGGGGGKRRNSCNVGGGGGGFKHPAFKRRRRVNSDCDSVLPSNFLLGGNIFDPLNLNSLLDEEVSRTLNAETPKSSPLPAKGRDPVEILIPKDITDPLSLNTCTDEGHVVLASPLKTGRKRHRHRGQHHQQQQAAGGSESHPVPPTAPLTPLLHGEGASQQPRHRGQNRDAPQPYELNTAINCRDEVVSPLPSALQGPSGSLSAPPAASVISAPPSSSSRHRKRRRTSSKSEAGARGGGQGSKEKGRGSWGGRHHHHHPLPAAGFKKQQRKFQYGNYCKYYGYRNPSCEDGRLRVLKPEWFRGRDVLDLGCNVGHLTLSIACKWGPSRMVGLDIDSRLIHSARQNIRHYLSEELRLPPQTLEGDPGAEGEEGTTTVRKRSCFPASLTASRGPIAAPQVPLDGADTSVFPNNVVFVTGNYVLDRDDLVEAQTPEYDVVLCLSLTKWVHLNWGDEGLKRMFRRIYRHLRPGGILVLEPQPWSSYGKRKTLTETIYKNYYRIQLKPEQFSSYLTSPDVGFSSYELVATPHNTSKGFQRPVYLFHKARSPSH
UniProt O43513: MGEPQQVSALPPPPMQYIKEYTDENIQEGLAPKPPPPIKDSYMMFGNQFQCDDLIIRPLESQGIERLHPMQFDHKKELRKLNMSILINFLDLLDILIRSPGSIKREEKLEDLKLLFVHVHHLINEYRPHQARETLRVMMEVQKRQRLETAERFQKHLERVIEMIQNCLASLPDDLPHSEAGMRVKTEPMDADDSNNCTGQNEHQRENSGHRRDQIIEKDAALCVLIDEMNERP
UniProt P55082: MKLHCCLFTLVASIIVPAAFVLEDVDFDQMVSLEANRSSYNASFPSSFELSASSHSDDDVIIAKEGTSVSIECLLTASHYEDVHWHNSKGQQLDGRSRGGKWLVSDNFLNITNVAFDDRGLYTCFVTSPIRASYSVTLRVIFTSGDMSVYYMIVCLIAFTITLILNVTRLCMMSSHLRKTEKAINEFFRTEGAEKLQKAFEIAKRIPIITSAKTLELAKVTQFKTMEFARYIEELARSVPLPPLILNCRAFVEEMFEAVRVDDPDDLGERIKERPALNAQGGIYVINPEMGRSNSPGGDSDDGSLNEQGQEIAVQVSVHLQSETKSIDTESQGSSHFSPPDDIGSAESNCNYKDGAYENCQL
UniProt P10620: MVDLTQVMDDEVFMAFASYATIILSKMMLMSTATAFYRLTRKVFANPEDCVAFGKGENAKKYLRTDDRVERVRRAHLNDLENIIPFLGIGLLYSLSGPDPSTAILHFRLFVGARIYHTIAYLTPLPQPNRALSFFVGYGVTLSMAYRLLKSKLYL
UniProt O15021: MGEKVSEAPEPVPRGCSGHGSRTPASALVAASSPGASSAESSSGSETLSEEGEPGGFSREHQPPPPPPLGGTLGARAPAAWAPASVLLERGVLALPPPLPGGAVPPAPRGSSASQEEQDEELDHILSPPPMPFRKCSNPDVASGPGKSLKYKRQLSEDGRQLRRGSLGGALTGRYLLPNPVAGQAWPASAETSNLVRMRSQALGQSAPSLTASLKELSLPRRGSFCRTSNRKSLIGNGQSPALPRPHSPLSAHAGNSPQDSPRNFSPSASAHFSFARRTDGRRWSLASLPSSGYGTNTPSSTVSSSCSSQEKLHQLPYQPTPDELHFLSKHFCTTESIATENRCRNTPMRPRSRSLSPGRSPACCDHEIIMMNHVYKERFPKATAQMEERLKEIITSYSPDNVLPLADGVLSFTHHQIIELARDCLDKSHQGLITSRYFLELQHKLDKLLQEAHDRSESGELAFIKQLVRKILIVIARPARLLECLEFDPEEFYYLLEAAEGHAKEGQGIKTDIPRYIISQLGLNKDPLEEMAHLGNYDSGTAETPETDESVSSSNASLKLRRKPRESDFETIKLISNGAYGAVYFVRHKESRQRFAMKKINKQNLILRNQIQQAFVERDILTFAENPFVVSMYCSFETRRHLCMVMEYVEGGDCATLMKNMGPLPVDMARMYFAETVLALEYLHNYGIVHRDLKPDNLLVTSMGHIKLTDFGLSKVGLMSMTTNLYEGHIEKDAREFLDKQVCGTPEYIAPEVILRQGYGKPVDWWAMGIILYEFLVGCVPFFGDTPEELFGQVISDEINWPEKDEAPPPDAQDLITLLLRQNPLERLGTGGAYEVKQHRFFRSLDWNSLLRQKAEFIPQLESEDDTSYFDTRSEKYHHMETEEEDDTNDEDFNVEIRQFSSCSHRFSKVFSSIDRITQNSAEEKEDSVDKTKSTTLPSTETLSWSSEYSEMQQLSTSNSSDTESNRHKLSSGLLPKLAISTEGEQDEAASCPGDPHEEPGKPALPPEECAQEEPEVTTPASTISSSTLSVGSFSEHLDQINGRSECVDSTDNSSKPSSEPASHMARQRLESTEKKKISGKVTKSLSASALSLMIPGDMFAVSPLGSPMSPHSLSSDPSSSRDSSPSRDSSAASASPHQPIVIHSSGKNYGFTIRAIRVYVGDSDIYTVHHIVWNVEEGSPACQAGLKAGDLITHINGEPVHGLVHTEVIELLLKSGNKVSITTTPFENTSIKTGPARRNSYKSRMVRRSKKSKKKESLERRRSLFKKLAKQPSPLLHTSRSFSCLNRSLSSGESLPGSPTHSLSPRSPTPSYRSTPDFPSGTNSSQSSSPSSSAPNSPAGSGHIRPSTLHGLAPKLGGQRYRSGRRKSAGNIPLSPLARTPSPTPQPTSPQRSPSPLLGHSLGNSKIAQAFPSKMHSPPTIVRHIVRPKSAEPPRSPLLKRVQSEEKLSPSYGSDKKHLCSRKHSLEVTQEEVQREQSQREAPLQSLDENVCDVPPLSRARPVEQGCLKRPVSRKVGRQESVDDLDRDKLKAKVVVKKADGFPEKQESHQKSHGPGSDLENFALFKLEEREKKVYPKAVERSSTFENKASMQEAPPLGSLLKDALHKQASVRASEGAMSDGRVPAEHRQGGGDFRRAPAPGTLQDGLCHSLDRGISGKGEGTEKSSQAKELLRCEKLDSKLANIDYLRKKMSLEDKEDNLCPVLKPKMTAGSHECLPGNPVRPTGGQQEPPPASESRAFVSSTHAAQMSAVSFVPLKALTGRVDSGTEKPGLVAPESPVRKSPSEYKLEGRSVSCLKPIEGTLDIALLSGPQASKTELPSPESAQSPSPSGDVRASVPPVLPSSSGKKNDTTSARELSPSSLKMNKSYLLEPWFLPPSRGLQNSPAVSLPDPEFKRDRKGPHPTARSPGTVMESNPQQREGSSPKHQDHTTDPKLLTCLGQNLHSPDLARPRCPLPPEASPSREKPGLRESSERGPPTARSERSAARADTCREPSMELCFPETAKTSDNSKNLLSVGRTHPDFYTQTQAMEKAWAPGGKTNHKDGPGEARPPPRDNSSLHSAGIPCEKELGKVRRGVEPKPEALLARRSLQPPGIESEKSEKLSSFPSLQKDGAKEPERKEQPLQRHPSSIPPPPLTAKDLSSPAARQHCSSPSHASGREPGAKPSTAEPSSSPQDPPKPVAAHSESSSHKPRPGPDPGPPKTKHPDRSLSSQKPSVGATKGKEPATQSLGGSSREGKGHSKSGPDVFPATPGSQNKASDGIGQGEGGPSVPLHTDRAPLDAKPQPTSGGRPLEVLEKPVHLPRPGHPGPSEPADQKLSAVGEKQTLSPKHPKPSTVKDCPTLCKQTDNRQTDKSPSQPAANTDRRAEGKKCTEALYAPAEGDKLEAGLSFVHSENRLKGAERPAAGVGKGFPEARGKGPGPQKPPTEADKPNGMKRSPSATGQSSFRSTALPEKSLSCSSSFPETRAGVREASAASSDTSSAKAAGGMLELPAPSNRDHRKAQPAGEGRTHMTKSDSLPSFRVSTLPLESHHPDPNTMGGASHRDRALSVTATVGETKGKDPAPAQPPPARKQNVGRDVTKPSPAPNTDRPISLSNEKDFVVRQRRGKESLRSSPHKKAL
UniProt Q6ZSS7: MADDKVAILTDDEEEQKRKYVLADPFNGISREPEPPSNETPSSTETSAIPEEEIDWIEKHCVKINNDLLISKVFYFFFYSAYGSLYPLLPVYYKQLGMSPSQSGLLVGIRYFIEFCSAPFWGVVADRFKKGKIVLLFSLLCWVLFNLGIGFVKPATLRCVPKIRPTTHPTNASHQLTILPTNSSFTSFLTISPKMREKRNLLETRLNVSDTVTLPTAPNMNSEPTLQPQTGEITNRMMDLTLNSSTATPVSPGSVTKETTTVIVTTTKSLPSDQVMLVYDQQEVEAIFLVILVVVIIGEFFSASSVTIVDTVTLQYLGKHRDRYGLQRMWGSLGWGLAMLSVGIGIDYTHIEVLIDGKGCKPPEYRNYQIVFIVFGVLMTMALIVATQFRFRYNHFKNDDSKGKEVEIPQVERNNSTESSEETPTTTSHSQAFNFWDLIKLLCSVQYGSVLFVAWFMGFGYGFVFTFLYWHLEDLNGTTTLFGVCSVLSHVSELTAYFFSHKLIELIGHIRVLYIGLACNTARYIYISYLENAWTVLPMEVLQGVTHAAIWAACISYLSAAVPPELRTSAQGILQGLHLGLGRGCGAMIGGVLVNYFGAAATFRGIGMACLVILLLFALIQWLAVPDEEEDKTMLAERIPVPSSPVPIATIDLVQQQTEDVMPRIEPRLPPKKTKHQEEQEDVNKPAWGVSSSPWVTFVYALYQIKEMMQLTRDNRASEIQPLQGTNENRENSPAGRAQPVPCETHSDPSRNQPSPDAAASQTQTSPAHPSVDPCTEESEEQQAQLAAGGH
UniProt Q9GZY8: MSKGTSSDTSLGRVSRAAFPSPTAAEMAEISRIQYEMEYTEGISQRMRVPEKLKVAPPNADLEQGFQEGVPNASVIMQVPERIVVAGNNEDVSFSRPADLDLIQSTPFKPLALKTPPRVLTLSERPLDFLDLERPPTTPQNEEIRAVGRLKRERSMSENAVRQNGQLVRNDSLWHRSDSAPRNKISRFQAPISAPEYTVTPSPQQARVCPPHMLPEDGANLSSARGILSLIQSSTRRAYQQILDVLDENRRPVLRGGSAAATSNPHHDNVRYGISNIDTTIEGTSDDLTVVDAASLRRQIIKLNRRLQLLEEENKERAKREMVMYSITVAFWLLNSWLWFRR
UniProt O14880: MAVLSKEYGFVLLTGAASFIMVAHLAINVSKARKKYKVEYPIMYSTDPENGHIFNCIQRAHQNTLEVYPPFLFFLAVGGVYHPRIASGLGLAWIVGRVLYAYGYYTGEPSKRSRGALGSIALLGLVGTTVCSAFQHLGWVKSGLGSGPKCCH
UniProt Q9NVC6: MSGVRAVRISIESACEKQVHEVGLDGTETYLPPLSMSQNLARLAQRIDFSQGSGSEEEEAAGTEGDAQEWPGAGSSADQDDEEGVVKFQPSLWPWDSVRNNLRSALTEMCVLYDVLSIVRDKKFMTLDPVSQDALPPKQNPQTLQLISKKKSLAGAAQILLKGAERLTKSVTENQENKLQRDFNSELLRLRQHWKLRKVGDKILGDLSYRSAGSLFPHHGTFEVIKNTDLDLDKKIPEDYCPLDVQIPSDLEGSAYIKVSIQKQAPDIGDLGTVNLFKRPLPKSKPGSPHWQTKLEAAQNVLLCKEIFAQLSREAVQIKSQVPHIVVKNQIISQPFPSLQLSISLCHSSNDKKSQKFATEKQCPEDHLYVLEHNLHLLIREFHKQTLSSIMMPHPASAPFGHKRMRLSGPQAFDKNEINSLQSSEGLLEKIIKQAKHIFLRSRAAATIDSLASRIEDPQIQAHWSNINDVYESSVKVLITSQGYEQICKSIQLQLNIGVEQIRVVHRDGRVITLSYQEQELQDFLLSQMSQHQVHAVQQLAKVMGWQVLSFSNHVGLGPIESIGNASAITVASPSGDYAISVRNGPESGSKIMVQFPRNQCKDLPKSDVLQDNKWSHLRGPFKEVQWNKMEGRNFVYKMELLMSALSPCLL
UniProt Q9HCC0: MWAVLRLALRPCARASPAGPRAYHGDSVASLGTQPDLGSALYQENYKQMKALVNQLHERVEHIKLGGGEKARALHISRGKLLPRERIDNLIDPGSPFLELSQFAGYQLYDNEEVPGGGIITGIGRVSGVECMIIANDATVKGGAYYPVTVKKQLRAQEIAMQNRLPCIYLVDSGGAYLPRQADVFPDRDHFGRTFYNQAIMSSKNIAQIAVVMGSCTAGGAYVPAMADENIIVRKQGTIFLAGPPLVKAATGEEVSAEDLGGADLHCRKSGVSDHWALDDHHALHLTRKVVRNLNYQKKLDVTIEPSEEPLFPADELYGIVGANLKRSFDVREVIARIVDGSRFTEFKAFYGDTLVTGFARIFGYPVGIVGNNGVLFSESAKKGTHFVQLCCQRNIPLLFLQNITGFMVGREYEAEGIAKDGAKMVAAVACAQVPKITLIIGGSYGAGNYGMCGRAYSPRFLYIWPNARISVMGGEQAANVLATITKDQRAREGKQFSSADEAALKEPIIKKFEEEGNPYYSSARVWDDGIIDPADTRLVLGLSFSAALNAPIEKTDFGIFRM

Assays:
Test in all cases: log2 fold change, soluble protein after heating vs DMSO (PISA); higher = thermal stabilisation; K562 cells, 10 uM, 30 min; active = over 0.2 and 3.5 SD of the protein, either way, in both replicates (recomputed)
saracatinib = compound: CN1CCN(CCOc2cc(OC3CCOCC3)c3c(Nc4c(Cl)ccc5c4OCO5)ncnc3c2)CC1 [saracatinib]
How it was run: (§1)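 Quantification of soluble protein used TMTpro 16plex LC-MS/MS, with channel sums equalised. Samples were the supernatant after 21,000xg for 90 min of pooled aliquots from K562 cells (2×10^6 cells/mL) treated with 10 μM compound for 30 min, heated for 3 min over 48°C-58°C, and extracted in PBS with 0.5% NP-40 at 4°C. Values, from duplicates, describe thermal stability against control samples on a log2 fold-change scale.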

sotrastaurin = compound: CN1CCN(c2nc(C3=C(c4c[nH]c5ccccc45)C(=O)NC3=O)c3ccccc3n2)CC1 [sotrastaurin]
How it was run: as §1

Tubastatin A = compound: CN1CCc2c(c3ccccc3n2Cc2ccc(C(=O)NO)cc2)C1 [Tubastatin A]
How it was run: as §1

[1] = compound: CNC(=O)C1=CC=CC=C1NC2=NC(=NC=C2Cl)NC3=C(C=C(C=C3)N4CCOCC4)OC
How it was run: as §1

defactinib = compound: CNC(=O)c1ccc(Nc2ncc(C(F)(F)F)c(NCc3nccnc3N(C)S(C)(=O)=O)n2)cc1 [defactinib]
How it was run: as §1

rucaparib = compound: CNCc1ccc(-c2[nH]c3cc(F)cc4c3c2CCNC4=O)cc1 [rucaparib]
How it was run: as §1

[2] = compound: CNc1nc(-c2ccc3c(N)n[nH]c3c2)cc(N2C[C@@H](C(=O)NC3CCCCC3)CC[C@H]2C)n1
How it was run: as §1

encorafenib = compound: COC(=O)N[C@@H](C)CNc1nccc(-c2cn(C(C)C)nc2-c2cc(Cl)cc(NS(C)(=O)=O)c2F)n1 [encorafenib]
How it was run: as §1

[3] = compound: COC(=O)[C@H](CCSC)NC(=O)C1=C(C=C(C=C1)NC[C@H](CS)N)C2=CC=CC=C2
How it was run: as §1

[4] = compound: COC1=CC=C(C=C1)CN2C=CC3=C2C=C(C=C3)C(=O)NO
How it was run: as §1

filanesib = compound: CON(C)C(=O)N1N=C(c2cc(F)ccc2F)S[C@@]1(CCCN)c1ccccc1 [filanesib]
How it was run: as §1

zotarolimus = compound: CO[C@H]1C[C@@H]2CC[C@@H](C)[C@@](O)(O2)C(=O)C(=O)N2CCCC[C@H]2C(=O)O[C@H]([C@H](C)C[C@@H]2CC[C@H](n3cnnn3)[C@H](OC)C2)CC(=O)[C@H](C)/C=C(\C)[C@@H](O)[C@@H](OC)C(=O)[C@H](C)C[C@H](C)/C=C/C=C/C=C/1C [zotarolimus]
How it was run: as §1

idasanutlin = compound: COc1cc(C(=O)O)ccc1NC(=O)[C@@H]1N[C@@H](CC(C)(C)C)[C@](C#N)(c2ccc(Cl)cc2F)[C@H]1c1cccc(Cl)c1F [idasanutlin]
How it was run: as §1

alisertib = compound: COc1cc(Nc2ncc3c(n2)-c2ccc(Cl)cc2C(c2c(F)cccc2OC)=NC3)ccc1C(=O)O [alisertib]
How it was run: as §1

[5] = compound: COc1cc2nc(-c3cc(F)ccc3O)nc(N[C@@H]3CNC[C@H]3C(C)(C)O)c2cc1OC
How it was run: as §1

gefitinib = compound: COc1cc2ncnc(Nc3ccc(F)c(Cl)c3)c2cc1OCCCN1CCOCC1 [gefitinib]
How it was run: as §1

[6] = compound: COc1cccc2cc(-c3nc([C@H]4CC[C@H](C(=O)O)CC4)n4ncnc(N)c34)[nH]c12
How it was run: as §1

lapatinib = compound: CS(=O)(=O)CCNCc1ccc(-c2ccc3ncnc(Nc4ccc(OCc5cccc(F)c5)c(Cl)c4)c3c2)o1 [lapatinib]
How it was run: as §1

pictilisib = compound: CS(=O)(=O)N1CCN(Cc2cc3nc(-c4cccc5[nH]ncc45)nc(N4CCOCC4)c3s2)CC1 [pictilisib]
How it was run: as §1

alvocidib = compound: CN1CC[C@H](c2c(O)cc(O)c3c(=O)cc(-c4ccccc4Cl)oc23)[C@H](O)C1 [alvocidib]
How it was run: as §1

Measured: log2 fold change

MCL1 (UniProt Q07820)
inactive: saracatinib 0.011 | sotrastaurin -0.114 | Tubastatin A 0.268 | [1] -0.022 | defactinib -0.015 | rucaparib 0.029 | [2] -0.063 | encorafenib 0.004 | [3] 0.047 | [4] -0.092 | filanesib 0.029 | zotarolimus 0.093 | idasanutlin 0.145 | alisertib -0.12 | gefitinib -0.18 | [6] 0.055 | lapatinib -0.249 | pictilisib -0.026
active: [5] -0.442

MEPCE (UniProt Q7L2J0)
inactive: saracatinib -0.019 | sotrastaurin -0.022 | Tubastatin A -0.104 | [1] -0.052 | defactinib -0.192 | rucaparib -0.056 | [2] 0.049 | encorafenib 0.067 | [3] -0.077 | filanesib 0.042 | zotarolimus 0.042 | idasanutlin 0.036 | alisertib -0.093 | [5] -0.167 | gefitinib 0.078 | [6] 0.013 | lapatinib 0.102 | pictilisib -0.013
active: [4] -0.706

METTL2B (UniProt Q6P1Q9)
inactive: saracatinib -0.075 | sotrastaurin -0.186 | alvocidib 0.005 | defactinib -0.034 | [2] 0.102 | [3] -0.326 | [4] -0.169 | filanesib -0.054 | zotarolimus 0.06 | idasanutlin 0.036 | alisertib 0.139 | [6] -0.16 | pictilisib -0.014

MFSD11 (UniProt O43934)
active: filanesib -0.464
inactive: saracatinib 0.092 | sotrastaurin 0.085 | Tubastatin A 0.005 | defactinib -0.033 | rucaparib -0.002 | [2] -0.127 | encorafenib -0.047 | [3] -0.015 | [4] -0.029 | zotarolimus -0.003 | idasanutlin -0.055 | alisertib -0.009 | [5] -0.046 | gefitinib -0.064 | [6] -0.002 | lapatinib 0.041 | pictilisib 0.02

MFN1 (UniProt Q8IWA4)
active: [5] -0.523
inactive: saracatinib -0.029 | sotrastaurin 0.016 | Tubastatin A 0.025 | [1] -0.019 | defactinib -0.074 | rucaparib -0.015 | [2] 0.023 | encorafenib 0.038 | [3] 0 | [4] 0.042 | filanesib -0.182 | zotarolimus 0.06 | idasanutlin 0.034 | alisertib 0.262 | gefitinib 0.017 | [6] 0.03 | lapatinib 0.002 | pictilisib 0.024

MED7 (UniProt O43513)
inactive: saracatinib -0.026 | sotrastaurin 0.151 | Tubastatin A -0.145 | [1] -0.056 | defactinib -0.015 | [2] -0.006 | [3] 0.012 | [4] -0.021 | filanesib -0.01 | zotarolimus 0.07 | idasanutlin -0.159 | [5] -0.049 | gefitinib -0.022 | lapatinib -0.116

MFAP3 (UniProt P55082)
inactive: saracatinib 0.088 | sotrastaurin 0.019 | Tubastatin A 0.068 | defactinib 0.306 | [2] 0.002 | [3] -0.189 | filanesib -0.092 | idasanutlin 0.192

MGST1 (UniProt P10620)
inactive: saracatinib 0.042 | sotrastaurin -0.013 | Tubastatin A -0.174 | [1] 0.009 | defactinib -0.037 | rucaparib 0.003 | [2] 0.021 | encorafenib -0.147 | [3] 0.018 | [4] 0.039 | filanesib -0.019 | zotarolimus 0.006 | idasanutlin -0.06 | alisertib 0.013 | [5] 0.152 | gefitinib -0.036 | [6] -0.043 | lapatinib -0.009 | pictilisib 0.112

MDC1 (UniProt Q14676)
inactive: saracatinib -0.194 | sotrastaurin -0.003 | Tubastatin A 0.011 | [1] -0.162 | defactinib -0.012 | rucaparib 0.082 | [2] 0.119 | encorafenib 0.075 | [3] -0.067 | [4] -0.055 | filanesib 0.223 | zotarolimus 0.005 | idasanutlin 0.283 | alisertib -0.028 | [5] -0.01 | gefitinib 0.032 | [6] -0.045 | lapatinib 0.077 | pictilisib 0.08

METAP1D (UniProt Q6UB28)
inactive: saracatinib 0.088 | sotrastaurin -0.042 | Tubastatin A -0.181 | [1] 0.036 | defactinib 0.013 | rucaparib -0.074 | [2] 0.04 | encorafenib 0.006 | [3] 0.006 | filanesib -0.097 | zotarolimus 0.054 | idasanutlin 0.079 | alisertib -0.085 | [5] 0.021 | gefitinib -0.029 | [6] -0.035 | lapatinib -0.062
active: [4] 0.342

MAST4 (UniProt O15021)
inactive: saracatinib 0.006 | sotrastaurin -0.103 | Tubastatin A 0.012 | [1] -0.087 | defactinib -0.149 | rucaparib -0.101 | [2] -0.006 | encorafenib 0.042 | [3] -0.017 | [4] -0.023 | filanesib -0.114 | zotarolimus 0.035 | idasanutlin -0.103 | alisertib -0.073 | [5] -0.283 | gefitinib -0.031 | [6] 0.019 | lapatinib 0.046 | pictilisib -0.036

MCU (UniProt Q8NE86)
inactive: saracatinib 0.039 | sotrastaurin -0.028 | Tubastatin A 0.036 | [1] 0.013 | defactinib -0.043 | rucaparib -0.032 | [2] -0.014 | encorafenib -0.017 | [3] -0.032 | [4] -0.056 | filanesib -0.152 | zotarolimus 0.164 | idasanutlin -0.091 | alisertib -0.053 | [5] -0.053 | gefitinib -0.049 | [6] 0.054 | lapatinib -0.099 | pictilisib 0.09

MED25 isoform 3 (UniProt Q71SY5)
inactive: saracatinib -0.079 | sotrastaurin 0.031 | Tubastatin A -0.042 | [1] -0.014 | defactinib -0.045 | rucaparib 0.104 | [2] 0.036 | encorafenib 0.083 | [3] -0.111 | [4] -0.015 | filanesib -0.018 | zotarolimus 0.136 | idasanutlin 0.004 | alisertib 0.048 | [5] -0.01 | gefitinib 0.093 | [6] -0.285 | lapatinib -0.03 | pictilisib 0.103

MFSD6 (UniProt Q6ZSS7)
inactive: saracatinib -0.087 | sotrastaurin -0.072 | alvocidib -0.152 | [1] 0.157 | defactinib 0.031 | [2] -0.088 | [3] -0.014 | filanesib 0.082 | zotarolimus -0.042 | idasanutlin -0.212 | alisertib 0.106 | gefitinib 0.187 | [6] 0.022 | pictilisib 0.125

MFF (UniProt Q9GZY8)
inactive: saracatinib 0.003 | sotrastaurin -0.027 | Tubastatin A 0.012 | [1] -0.127 | defactinib -0.025 | rucaparib -0.059 | [2] -0.078 | encorafenib 0.015 | [3] 0.092 | [4] 0.038 | filanesib 0.075 | zotarolimus -0.022 | idasanutlin 0.053 | alisertib 0.024 | [5] -0.141 | gefitinib 0.012 | [6] 0.128 | lapatinib -0.061 | pictilisib 0.103

MGST3 (UniProt O14880)
inactive: saracatinib 0.037 | sotrastaurin 0.064 | Tubastatin A -0.01 | [1] -0.029 | defactinib 0.012 | rucaparib -0.027 | [2] -0.028 | encorafenib -0.033 | [3] 0.053 | [4] -0.021 | filanesib -0.035 | zotarolimus -0.005 | idasanutlin 0.012 | alisertib 0.008 | [5] 0.001 | gefitinib 0.002 | [6] 0.018 | lapatinib -0.009 | pictilisib 0.004

2 records drawn at random from the list so far:
MFF (UniProt Q9GZY8)
inactive: saracatinib 0.003 | sotrastaurin -0.027 | Tubastatin A 0.012 | [1] -0.127 | defactinib -0.025 | rucaparib -0.059 | [2] -0.078 | encorafenib 0.015 | [3] 0.092 | [4] 0.038 | filanesib 0.075 | zotarolimus -0.022 | idasanutlin 0.053 | alisertib 0.024 | [5] -0.141 | gefitinib 0.012 | [6] 0.128 | lapatinib -0.061 | pictilisib 0.103

MGST3 (UniProt O14880)
inactive: saracatinib 0.037 | sotrastaurin 0.064 | Tubastatin A -0.01 | [1] -0.029 | defactinib 0.012 | rucaparib -0.027 | [2] -0.028 | encorafenib -0.033 | [3] 0.053 | [4] -0.021 | filanesib -0.035 | zotarolimus -0.005 | idasanutlin 0.012 | alisertib 0.008 | [5] 0.001 | gefitinib 0.002 | [6] 0.018 | lapatinib -0.009 | pictilisib 0.004

Next records follow:

MED17 (UniProt Q9NVC6)
inactive: saracatinib -0.063 | sotrastaurin -0.145 | Tubastatin A 0.009 | [1] -0.049 | defactinib -0.021 | rucaparib 0.109 | [2] 0.031 | encorafenib -0.081 | [3] 0.055 | [4] 0.004 | filanesib 0.019 | zotarolimus -0.052 | idasanutlin 0.166 | alisertib -0.08 | [5] 0.044 | gefitinib 0.016 | [6] -0.018 | lapatinib -0.063 | pictilisib 0.089

MCCC2 (UniProt Q9HCC0)
active: [1] -0.274
inactive: saracatinib 0.033 | sotrastaurin 0.018 | Tubastatin A 0.004 | defactinib 0.008 | rucaparib 0.012 | [2] -0.05 | encorafenib -0.033 | [3] -0.003 | [4] 0.137 | filanesib -0.07 | zotarolimus 0 | idasanutlin -0.033 | alisertib -0.057 | [5] -0.022 | gefitinib 0.006 | [6] 0.083 | lapatinib 0.001 | pictilisib -0.031
